In US20050074834A1 (priority 2001, published 2005):

Tested on: chromatophores

COC(=O)C1=C(C)NC(C)=C(C(=O)OC)C1c1ccccc1[N+](=O)[O-] [Nifedipine]
Threshold concentration PPB: XX (key: X=1 to 100 PPB; XX=100 to 1000 PPB)
